According to PubChem BioAssay AID2685 (National Center for Advancing Translational Sciences (NCATS), 2010):
The other results are listed elsewhere or left out. Shown are side measurements of this screen, not its main read-out; they come without a call. Compounds called inactive in the main read-out are mostly missing here. Potencies come from curve fits of mixed quality, noted in brackets.

Assay: qHTS Assay for Lipid Storage Modulators in Drosophila S3 Cells;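 as to cell number change: cells counted by Cell Tracker Red CMTPX staining in the red channel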
Details: BODIPY lipid droplet fluorescence, 18-24 h; for cell number change: measured here: cell count max response, cells fed with added oleic acid
Outline: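 Laser-scanning cytometry quantifies lipid droplet accumulation (500–530 nm total intensity; droplet/cell object ratio) in oleic acid-fed (400 uM added) Drosophila S3 cells treated with a concentration series. 20 uM Triacsin C defined 100% inhibition.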

[1] = measured here: cell number channel AC50, cells fed with added oleic acid
[2] = measured here: lipid fluorescence (Fed channel) AC50, cells fed with added oleic acid

| Compound | cell number change [%] | AC50 [1] | AC50 [2] |
| --- | --- | --- | --- |
| O=C1c2ccc(Br)cc2C(=O)N1c1ccc(Cc2ccncc2)cc1 | -42.3 | 29.1 µM [falling, single point] | 32.6 µM [falling, partial curve, poor fit] |
| Cc1ccc(S(=O)(=O)N2CCC(=O)N(CCOCc3cccc(C(F)(F)F)c3)CC2)cc1 | -9.42 | – | 32.6 µM [rising, single point] |
| CCN1CCCC1CNCc1cc(OC)c(OC)c(OC)c1 (stereo not drawn) | -49.2 | – | 0.58 µM [falling, single point] |
| CC1CCCC(C)N1C(=O)c1cccc2c1-c1ccccc1/C2=N/O (stereo not drawn) | -24 | – | 29.1 µM [falling, single point] |
| Cc1cc(=O)oc2cc(OCC(=O)N/N=C/c3ccccc3[N+](=O)[O-])ccc12 | -51.9 | 29.1 µM [falling, single point] | 29.1 µM [falling, single point] |
| Cc1nc2ccccc2c(=O)[nH]1 | -12.9 | 0.461 µM [falling, full curve] | 0.651 µM [falling, partial curve, poor fit] |
| CCOc1cc(/C=C2/C(=N)N3N=C(C)SC3=NC2=O)ccc1OS(=O)(=O)c1ccc(C)cc1 | 2.52 | – | 0.291 µM [rising, single point] |
| CC(c1ccco1)N(C(=O)c1ccc(C(F)(F)F)cc1)c1ccccn1 (stereo not drawn) | -35.4 | – | – |
| CN(Cc1ccccc1)C1=CC(=[N+]2CCCCC2)CC(C)(C)C1 | -53.8 | 7.31 µM [falling, partial curve] | 6.51 µM [falling, partial curve] |
| COc1ccc(-c2cc(C(=O)N3CCN(c4ccccc4)CC3)c3ccccc3n2)cc1OC | 19.4 | 0.092 µM [rising, full curve, poor fit] | 3.26 µM [rising, partial curve] |
| CCOC(=O)c1c(C)[nH]c(C(=O)OCC(=O)NCc2ccc(OC)c(OC)c2)c1C | -3.26 | – | 29.1 µM [falling, single point] |
| COc1cc(OC)c(C2C(C(=O)Nc3ccc(C)cc3C)=C(C)Nc3ncnn32)cc1OC (stereo not drawn) | -12.9 | – | 0.58 µM [falling, full curve, poor fit] |
| COCCn1c(SC(C)C(=O)NCC2CCCO2)nc2sc3c(c2c1=O)CCC3 (stereo not drawn) | – | – | 3.26 µM [rising, single point] |
| CC(C)(C)C(=O)NC(=S)NNC(=O)c1ccc(-c2ccccc2)cc1 | -31.4 | 20 µM [falling, single point] | – |
| O=C(NC1CCCC1)C1CC(=O)N(c2ccc(F)c(Cl)c2)C1 (stereo not drawn) | -10.9 | – | 0.517 µM [falling, single point] |

Entries of single compounds as entered above:
Cc1nc2ccccc2c(=O)[nH]1 is listed with cell number change [%]: -12.9; AC50 [1]: 0.461 µM [falling, full curve]; AC50 [2]: 0.651 µM [falling, partial curve, poor fit]
COc1ccc(-c2cc(C(=O)N3CCN(c4ccccc4)CC3)c3ccccc3n2)cc1OC is listed with cell number change [%]: 19.4; AC50 [1]: 0.092 µM [rising, full curve, poor fit]; AC50 [2]: 3.26 µM [rising, partial curve]
